This experiment deals with T1, Nrf2 (mouse) (UniProt Q60795).
T1 sequence: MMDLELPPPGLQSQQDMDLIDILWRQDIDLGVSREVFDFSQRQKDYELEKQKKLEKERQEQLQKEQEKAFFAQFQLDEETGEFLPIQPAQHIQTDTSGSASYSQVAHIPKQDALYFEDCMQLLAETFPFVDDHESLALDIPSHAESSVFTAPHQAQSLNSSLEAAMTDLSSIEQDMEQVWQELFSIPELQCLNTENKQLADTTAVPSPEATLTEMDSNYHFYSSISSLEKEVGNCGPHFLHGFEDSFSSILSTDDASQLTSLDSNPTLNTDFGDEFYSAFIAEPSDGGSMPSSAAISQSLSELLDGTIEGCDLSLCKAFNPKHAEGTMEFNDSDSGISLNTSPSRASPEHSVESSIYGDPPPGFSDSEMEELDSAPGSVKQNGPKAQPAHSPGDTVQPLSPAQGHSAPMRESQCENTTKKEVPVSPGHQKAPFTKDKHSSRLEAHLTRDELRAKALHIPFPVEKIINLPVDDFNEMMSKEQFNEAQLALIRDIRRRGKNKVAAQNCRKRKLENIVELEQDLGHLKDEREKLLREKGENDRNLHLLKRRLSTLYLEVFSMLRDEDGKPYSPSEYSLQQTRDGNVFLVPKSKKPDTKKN
Kind of experiment: co-IP; 293T cells overexpressing mouse Snx25 and Nrf2; lysis in 50 mM Tris pH 7.4, 150 mM NaCl, 1% NP-40, 0.5% deoxycholic acid; lysate immunoprecipitated with anti-Nrf2 rabbit IgG on Protein G magnetic beads for 1 h, immunoblot with anti-SNX25; normal IgG as negative control. In general terms: In western blotting, separated proteins are transferred to a membrane and probed.

These are yes or no findings as the source states them, for the method shown. Binding seen in cells or lysates may run through a third protein. Some results given as binding are weak or reduced against the parent protein; the word gives no strength.

B1: sorting nexin (SNX)25 (protein, UniProt Q3ZT31 1-840)
chain: MDRVLRDVFDYSYRDYILSWYGNLSRDDGQLYHLLLDDFWEIVKQIRQRLSHVDVVKVVCNDIVKALLTHFCDLKAATARHEEQPRPFVLHACLKDSHDEVRFLQTCSQVLVLCLLPSKDIQSLSLRTMLAEILTTKVLKPVVELLSNPDYINQMLLRQLEYREQMSEHHKRAYTYAPSYEDFIKLINSNSDVDFLKQLRYQIVVEIIQATTISSFPQLKRHKGKESAAMKTDLLRARNMKRYINQLTVAKKQCEKRIRILGGPAYDQQEDGASDEGEGPQSQKILQFEDIMTNPFYRERFGTYMERIDKRALVGFWESAEHLKNANKSEIPQLVSEMYQNFFVESKEISVEKSLYKEIQQCLVGNRGIEVFSKIQADVSEVLRERYYPSFLVSDLYEKLMREEEEEEPDAQLASEKDELGSGGEAGEEAVEGTSGVSDPASFAVIKLRELNEKLEYKRQALSSIQNAPKPDKKIISKLKDEILLIEKECTALQLHMARTDWWCENLGLWRASITSAEVTEENGEQMPCYFVRVNLQEVGGVETKNWTVPRRLSEFQNLHRKLSECVPSLKKVQLPSLSKLPFKSIDHKFLGKSRNQLNAFLQNLLSDERLFQSEALYAFLSPSPDYLKVIDVQGKKTSFSLSSFLEKLPRDFFSHQEEEIEEDSDLSDYGDDVDGKKDSLAEPCFMLIGEIFELRGMFKWVRRTLIALVQVTFGRTINKQIRDTVSWISSEQMLVYYISAFRDAFWPNGKLAPPTRIRSVAQSQETKQRAQQKLLENIPDTLQSLVGQQNARHGIIKIFKALQETKANKHLLYVLMELLLTELCPELRAHLDQFKAGQV
B1: the binding result is reported as “binds”.

Values taken from PMC9977679.
